Test results reported in article PMC10163288.
This is one part of the list.

B1: il2ra_site2_3nfp_normal_mot_HHH_b1_04370_000000117_0001_1_20_H_._HHH_b2_02124_0001_0000300015_0000001_0_af2pred_0001_af2pred (protein)
chain: SSSSDEEYELRFVEYLAELAIEHTSDEEEREELEELLEELREKGDPRIARELAQIAAEILLSSSS
B2: il2ra_site1_2b5i_sap_12_mot_e4f16f412d24973e63efe4e4a8bb3ce7_0001_1_af2_000000118_0001_1_13_H_._HHH_b1_01857_0001_0000600025_0000001_0_0001_af2pred_0001_af2pred … (protein)
chain: SSSSDEEFHEVLQLFREASELYRRGNKEEARELLERALKIAEELGDKVAFEDVRRYLEKASSSSS
B3: il2ra_site1_3nfp_sap_18_mot_18aa8fce457275efd5553655b25e0e68_0001_1_000000138_0001_38_52_H_._aff62e40800cfbf30c5099bd910ef069_0001_0001_0000200013_0000001_0_000 … (protein)
chain: NAAKLLQRLMRLGVLSPEELQAIFKVLAEALRNKDPELDHELMELLELADKGDPEAEEALRELLR
B4: il2ra_site2_2erj_sap_27_mot_HHH_b2_01204_af2_000000056_0001_19_34_H_._HHH_b2_02801_0001_0000200018_0000001_0_0001 (protein)
chain: DSEEALRMAAEVSAKAAGVPDVEVEVENGTLEVEFTGTTHKLKLVLRLLEKFARWFGLDFETSSE
B5: il2ra_site2_3nfp_normal_mot_HHH_b1_00660_af2_000000090_0001_40_57_H_._HHH_b2_00689_0001_0000400034_0000001_0_af2pred_0001_af2pred (protein)
chain: SSSSSEEEERIRELIEQVEELLKKGDEEEARRLLREAAQLAWEAQDHELFARILELYELLESSSS
B6: il2ra_site2_2erj_normal_mot_a46e32ff5abe01017c5ab207d099328f_0001_1_af2_000000211_0001_36_50_H_._HHH_b1_06777_0001_0000600025_0000001_0_af2pred_0001_af2pred (protein)
chain: SSSSDEEEERVEELRLEISELLAEGDHERVEELLEELEELAEKLNDEEAKEFVEIVRILLSSSSS
B7: il2ra_site2_2erj_normal_mot_HHH_b1_07584_000000201_0001_42_55_H_._HHH_b1_03480_0001_0000400010_0000001_0_af2pred_0001_af2pred (protein)
chain: SSSSSEEEEKVRELSAEAAELKAEGDEEEARELLEEALEIAREINNEELRIFIEILLKRLNSSSS
B8: il2ra_site2_2erj_normal_mot_HHH_b1_02713_af2_000000038_0001_1_19_H_._HHH_b2_05421_0001_0000200007_0000001_0 (protein)
chain: SSSSSEEERLIREALLRAELLIEEGNEEEARQVLESALSYAKVLGDEEVLERIEKLLEELSSSSS
B9: il2ra_site1_1z92_sap_18_mot_HHH_b1_08075_000000018_0001_1_20_H_._HHH_b1_07355_0001_0000300021_0000001_0_0001 (protein)
chain: SSSSSSSSEEEVRELLERAKKVDTEEWRELLREALRIANEAGDEEARKLLREFVEEHSSSSSSSS
B10: il2ra_site1_1z92_sap_28_mot_HHH_b1_06519_000000232_0001_23_40_H_._HHH_b1_03304_0001_0000600030_0000001_0_0001_af2pred_0001_af2pred_swapped (protein)
chain: SSSSSRLERSLKLAARIAAKLAGLDEEEERELEEIAEELAERGVDFEEALRILDEVANELGSSSS
B11: il2ra_site2_3nfp_sap_30_mot_HHH_b2_03087_000000007_0001_42_55_H_._0f396a3c5b789435df01682a1ed80b82_0001_1_0001_0000100002_0000001_0_0001_1 (protein)
chain: SSSSDEEEVEELIREAKELLEKGNPEEAKKVLREAAHLAFRANDSELFFKLAELLARIAHSSSSS
B12: il2ra_site1_3nfp_sap_13_mot_HHH_b2_03135_af2_000000097_0001_42_55_H_._HHH_b1_04020_af2_0001_0000500010_0000001_1_0001 (protein)
chain: SEEEEEAEELLKERLPPRAVEMLKILARAVKEGNPNAERRLHYDLRVARQFGDEAVVRAIELLLK
B13: il2ra_site1_1z92_sap_15_mot_HHH_b1_03703_af2_000000171_0001_39_56_H_._ems_3hM_2546_af2_0001_0000600021_0000001_0_0001_af2pred_0001_af2pred_1 (protein)
chain: TARERLRELEEELGDPEQAVKWLFEKAHEQGLPPRNARIFVRKLIARLLNVPPEEAEELLERALK
B14: il2ra_site1_2b5i_normal_mot_HHH_b1_02271_000000068_0001_1_16_H_._d6030c5dbf6566d80ce0ad72a14fd8d0_0001_0001_0000200013_0000001_0_af2pred_dldesign_0_af2pred (protein)
chain: SRRRALLTVLDEIYKRRPEFEDAVDECAKLLSEKDPRLEEKAQELIDKLEKVDPEAAARLRAALE
B15: il2ra_site1_3nfp_sap_16_mot_HHH_b1_02229_000000038_0001_38_54_H_._5c6c2aab5a4e0b2af11bcfcc9ba4b787_0001_1_af2_0001_0000300017_0000001_0_0001_af2pred_0001_1_af2p … (protein)
chain: SSSSDEARKAFELVEEIQRLIKEGDHEEARELLEKLKEIAEELNSPAAKLLVRILERRLNSSSSS
B16: il2ra_site2_3nfp_normal_mot_HHH_b1_05547_af2_000000149_0001_21_38_H_._HHH_b1_01193_0001_0000600015_0000001_1 (protein)
chain: SSSSDKEKEELEEALEEALEAARALGDEEVVERIEELLEEFRREGDPKYTLEAYRLSREAYSSSS
B17: il2ra_site2_3nfp_normal_mot_HHH_b2_06150_000000217_0001_39_53_H_._HHH_b1_01649_0001_0000800011_0000001_0 (protein)
chain: SSSSDVEERVERLLEEAERRREEGDPEAVQELLAEASHIAYENRNSELFYLIAEVLFRLASSSSS
B18: il2ra_site2_3nfp_sap_19_mot_HHH_b1_07095_000000265_0001_1_20_H_._HHH_b2_05069_0001_0000400052_0000001_0_0001 (protein)
chain: NEELVEEAIELAEELGDPEVAEVLEKLLREARETNDPELREAVAALAAAVHLDPEYAKEMASLYK
B19: il2ra_site1_1z92_normal_mot_922575b2e9738a49cb663a995786872c_0001_af2_000000234_0001_18_32_H_._09c2afe89fb4cbada1505b3a46965288_0001_af2_0001_0000100006_0000001 … (protein)
chain: GPEQELEELEEELGDPREAIRLLLEELEEESGDPELARQFLKIEIKRLFNVPPEEAERLLREAEK

Each binder was assayed against il2ra, P01589 (assay: yeast display titration).

Apparent Kd, inactive:
B1 no binding seen
B2 no binding seen
B3 no binding seen
B4 no binding seen
B5 no binding seen
B6 no binding seen
B7 no binding seen
B8 no binding seen
B9 no binding seen
B10 no binding seen
B11 no binding seen
B12 no binding seen
B13 no binding seen
B14 no binding seen
B15 no binding seen
B16 no binding seen
B17 no binding seen
B18 no binding seen
B19 no binding seen

Quoted from the listing (2 entries):
Apparent Kd, inactive:
B4 no binding seen
B5 no binding seen
